Some of the results follow.
Assays:
Test in all cases: log2 fold change, soluble protein after heating vs DMSO (PISA); higher = thermal stabilisation; K562 cells, 10 uM, 30 min; active = over 0.2 and 3.5 SD of the protein, either way, in both replicates (recomputed)
[1] = compound: NC(=O)Nc1cc(-c2cccc(F)c2)sc1C(=O)N[C@H]1CCCNC1
Outline: (§1)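 K562 cells (2×10^6 cells/mL) were treated with 10 μM compound for 30 min, and aliquots were heated for 3 min over 48°C-58°C. Pooled aliquots were extracted in PBS with 0.5% NP-40 at 4°C, and the supernatant after 21,000xg for 90 min was measured by TMTpro 16plex LC-MS/MS with channel sums equalised. Reported thermal stability, relative to control samples and from duplicates, is a log2 fold change.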

The chains behind the UniProt entries cited, without tags or fusion partners. Where a name states a change or a piece, a line headed by the entry shows the natural chain unless it says otherwise.
UniProt O00115: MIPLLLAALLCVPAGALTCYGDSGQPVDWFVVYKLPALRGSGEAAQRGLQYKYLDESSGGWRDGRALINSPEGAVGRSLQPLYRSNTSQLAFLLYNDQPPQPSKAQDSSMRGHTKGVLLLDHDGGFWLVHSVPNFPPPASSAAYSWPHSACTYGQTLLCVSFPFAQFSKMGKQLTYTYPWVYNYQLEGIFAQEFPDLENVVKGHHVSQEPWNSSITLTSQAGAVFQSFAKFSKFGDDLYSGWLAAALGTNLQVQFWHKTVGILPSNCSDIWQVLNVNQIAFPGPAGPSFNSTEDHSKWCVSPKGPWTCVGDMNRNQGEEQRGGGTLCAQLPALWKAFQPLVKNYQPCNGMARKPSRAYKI
UniProt P42126: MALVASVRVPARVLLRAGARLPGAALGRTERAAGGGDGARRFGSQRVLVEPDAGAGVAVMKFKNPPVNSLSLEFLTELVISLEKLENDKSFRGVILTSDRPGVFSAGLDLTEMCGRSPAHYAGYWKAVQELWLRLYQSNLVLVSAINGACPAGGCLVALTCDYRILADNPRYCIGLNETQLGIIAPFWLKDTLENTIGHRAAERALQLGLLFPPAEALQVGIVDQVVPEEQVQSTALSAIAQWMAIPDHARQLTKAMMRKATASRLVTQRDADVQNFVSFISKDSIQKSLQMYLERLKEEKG
UniProt Q9H3H5: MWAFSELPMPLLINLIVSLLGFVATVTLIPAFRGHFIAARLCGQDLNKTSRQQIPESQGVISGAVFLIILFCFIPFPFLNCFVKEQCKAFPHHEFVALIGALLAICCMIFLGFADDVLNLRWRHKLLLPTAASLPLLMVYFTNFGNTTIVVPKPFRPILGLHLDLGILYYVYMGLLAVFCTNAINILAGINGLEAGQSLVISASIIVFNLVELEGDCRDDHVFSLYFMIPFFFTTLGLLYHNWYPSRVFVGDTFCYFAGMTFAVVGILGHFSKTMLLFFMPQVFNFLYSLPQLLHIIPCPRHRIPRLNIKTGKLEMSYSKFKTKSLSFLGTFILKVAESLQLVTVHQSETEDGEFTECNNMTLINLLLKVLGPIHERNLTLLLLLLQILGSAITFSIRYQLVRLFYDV
UniProt O75521: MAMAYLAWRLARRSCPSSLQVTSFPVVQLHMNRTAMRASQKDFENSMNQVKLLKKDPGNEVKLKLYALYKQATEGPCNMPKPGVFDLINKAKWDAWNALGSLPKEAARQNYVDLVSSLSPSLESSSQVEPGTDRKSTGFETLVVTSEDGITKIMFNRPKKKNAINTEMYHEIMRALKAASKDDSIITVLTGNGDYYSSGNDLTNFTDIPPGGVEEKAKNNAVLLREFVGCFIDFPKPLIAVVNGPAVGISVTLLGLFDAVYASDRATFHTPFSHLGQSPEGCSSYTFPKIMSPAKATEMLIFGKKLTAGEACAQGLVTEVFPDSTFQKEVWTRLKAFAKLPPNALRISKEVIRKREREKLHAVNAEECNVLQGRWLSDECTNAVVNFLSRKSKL
UniProt Q8TBM8: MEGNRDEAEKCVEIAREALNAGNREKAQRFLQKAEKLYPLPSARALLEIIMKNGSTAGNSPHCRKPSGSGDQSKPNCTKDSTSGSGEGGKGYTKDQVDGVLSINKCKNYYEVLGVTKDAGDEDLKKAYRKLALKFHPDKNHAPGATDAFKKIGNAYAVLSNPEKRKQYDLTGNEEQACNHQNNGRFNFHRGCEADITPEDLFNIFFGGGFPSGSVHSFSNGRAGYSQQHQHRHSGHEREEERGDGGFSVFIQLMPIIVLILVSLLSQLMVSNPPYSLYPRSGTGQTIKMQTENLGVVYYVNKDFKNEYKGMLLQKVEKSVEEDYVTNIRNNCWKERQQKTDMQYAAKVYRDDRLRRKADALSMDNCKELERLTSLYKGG
UniProt Q96DC8: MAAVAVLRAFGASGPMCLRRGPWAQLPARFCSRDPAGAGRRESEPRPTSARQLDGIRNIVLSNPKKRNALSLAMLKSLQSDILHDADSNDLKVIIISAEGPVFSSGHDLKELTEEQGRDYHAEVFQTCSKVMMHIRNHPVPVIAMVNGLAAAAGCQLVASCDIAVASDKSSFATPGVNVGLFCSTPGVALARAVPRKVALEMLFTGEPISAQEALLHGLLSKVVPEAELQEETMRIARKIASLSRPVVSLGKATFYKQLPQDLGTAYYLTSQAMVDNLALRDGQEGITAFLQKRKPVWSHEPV
UniProt Q6P3W2: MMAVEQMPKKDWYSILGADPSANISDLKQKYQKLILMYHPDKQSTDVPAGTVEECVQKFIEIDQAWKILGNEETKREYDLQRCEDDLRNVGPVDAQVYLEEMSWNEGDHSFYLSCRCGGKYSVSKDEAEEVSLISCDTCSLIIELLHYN
UniProt Q9Y3R5: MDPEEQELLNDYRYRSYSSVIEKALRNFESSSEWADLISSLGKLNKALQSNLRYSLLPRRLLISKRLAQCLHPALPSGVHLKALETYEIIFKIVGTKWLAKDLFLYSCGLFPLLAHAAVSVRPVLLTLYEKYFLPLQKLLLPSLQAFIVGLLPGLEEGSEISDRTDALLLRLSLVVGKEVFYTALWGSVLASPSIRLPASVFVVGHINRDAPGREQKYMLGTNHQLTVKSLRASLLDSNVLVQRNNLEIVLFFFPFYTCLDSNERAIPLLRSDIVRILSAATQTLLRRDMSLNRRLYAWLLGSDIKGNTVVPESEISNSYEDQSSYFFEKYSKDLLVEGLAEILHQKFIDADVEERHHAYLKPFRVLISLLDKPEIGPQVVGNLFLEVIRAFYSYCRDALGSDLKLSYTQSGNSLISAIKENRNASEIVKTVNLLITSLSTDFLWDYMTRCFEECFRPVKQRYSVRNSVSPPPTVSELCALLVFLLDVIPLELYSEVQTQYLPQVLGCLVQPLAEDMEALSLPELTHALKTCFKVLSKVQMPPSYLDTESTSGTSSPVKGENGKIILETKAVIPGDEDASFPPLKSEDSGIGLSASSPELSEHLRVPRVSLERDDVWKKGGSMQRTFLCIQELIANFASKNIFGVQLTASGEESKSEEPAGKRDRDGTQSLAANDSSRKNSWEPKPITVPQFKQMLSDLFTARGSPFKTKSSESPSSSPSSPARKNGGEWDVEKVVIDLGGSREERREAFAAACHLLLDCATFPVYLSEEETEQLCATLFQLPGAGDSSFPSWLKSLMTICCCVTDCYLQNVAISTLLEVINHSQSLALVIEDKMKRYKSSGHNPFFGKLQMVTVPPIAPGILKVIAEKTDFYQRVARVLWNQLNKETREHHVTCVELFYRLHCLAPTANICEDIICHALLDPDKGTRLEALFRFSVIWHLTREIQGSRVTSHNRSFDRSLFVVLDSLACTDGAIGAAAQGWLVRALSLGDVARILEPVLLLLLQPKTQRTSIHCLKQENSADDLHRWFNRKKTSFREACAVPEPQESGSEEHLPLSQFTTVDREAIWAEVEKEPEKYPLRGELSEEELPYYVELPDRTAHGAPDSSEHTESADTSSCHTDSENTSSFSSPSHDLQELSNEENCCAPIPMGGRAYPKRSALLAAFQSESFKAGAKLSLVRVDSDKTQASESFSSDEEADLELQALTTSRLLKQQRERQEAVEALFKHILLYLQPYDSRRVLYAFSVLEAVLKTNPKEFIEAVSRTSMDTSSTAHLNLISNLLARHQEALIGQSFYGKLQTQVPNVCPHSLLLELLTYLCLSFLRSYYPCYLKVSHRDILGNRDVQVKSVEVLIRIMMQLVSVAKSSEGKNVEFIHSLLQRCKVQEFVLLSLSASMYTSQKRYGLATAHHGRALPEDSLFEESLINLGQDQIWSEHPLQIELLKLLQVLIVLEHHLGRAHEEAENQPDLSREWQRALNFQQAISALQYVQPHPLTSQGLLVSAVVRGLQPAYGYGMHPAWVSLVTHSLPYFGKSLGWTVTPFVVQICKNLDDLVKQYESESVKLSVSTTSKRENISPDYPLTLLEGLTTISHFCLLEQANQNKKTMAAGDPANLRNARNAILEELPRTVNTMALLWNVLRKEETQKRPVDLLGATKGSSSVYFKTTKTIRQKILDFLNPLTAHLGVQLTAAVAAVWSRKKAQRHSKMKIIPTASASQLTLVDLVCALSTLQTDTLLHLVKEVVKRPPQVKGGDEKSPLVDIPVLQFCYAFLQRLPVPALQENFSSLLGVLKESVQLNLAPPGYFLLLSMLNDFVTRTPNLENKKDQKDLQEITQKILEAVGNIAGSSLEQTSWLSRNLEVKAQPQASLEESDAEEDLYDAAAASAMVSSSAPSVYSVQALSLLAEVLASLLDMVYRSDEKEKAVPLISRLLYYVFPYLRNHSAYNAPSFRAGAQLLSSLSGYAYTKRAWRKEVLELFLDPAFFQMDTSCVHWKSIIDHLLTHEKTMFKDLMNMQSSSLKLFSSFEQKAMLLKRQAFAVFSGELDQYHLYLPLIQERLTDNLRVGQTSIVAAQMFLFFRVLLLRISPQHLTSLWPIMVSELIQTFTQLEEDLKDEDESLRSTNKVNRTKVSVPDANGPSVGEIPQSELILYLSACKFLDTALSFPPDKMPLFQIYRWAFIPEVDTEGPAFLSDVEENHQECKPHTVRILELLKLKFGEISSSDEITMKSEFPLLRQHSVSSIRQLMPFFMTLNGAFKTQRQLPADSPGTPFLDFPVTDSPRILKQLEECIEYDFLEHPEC
UniProt Q66K89: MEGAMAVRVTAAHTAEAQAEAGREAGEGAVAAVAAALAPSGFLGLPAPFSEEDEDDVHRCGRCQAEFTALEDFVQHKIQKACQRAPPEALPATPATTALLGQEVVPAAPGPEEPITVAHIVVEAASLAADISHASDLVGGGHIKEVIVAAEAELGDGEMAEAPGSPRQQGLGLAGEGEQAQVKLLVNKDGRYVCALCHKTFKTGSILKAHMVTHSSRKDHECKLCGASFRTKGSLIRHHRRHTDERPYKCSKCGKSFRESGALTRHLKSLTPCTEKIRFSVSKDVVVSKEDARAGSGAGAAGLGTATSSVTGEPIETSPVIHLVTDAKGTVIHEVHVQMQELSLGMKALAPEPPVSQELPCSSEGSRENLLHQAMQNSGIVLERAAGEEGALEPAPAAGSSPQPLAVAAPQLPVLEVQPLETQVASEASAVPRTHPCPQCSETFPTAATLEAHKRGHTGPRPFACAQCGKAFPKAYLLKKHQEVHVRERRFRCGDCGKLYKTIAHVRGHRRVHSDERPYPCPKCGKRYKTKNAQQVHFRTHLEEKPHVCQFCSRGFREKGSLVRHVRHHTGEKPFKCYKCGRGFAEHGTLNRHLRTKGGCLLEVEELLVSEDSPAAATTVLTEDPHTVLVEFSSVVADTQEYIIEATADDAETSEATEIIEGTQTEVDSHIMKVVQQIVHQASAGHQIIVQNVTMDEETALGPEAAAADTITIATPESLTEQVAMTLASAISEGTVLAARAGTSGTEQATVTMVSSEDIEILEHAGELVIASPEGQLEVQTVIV
UniProt O95905: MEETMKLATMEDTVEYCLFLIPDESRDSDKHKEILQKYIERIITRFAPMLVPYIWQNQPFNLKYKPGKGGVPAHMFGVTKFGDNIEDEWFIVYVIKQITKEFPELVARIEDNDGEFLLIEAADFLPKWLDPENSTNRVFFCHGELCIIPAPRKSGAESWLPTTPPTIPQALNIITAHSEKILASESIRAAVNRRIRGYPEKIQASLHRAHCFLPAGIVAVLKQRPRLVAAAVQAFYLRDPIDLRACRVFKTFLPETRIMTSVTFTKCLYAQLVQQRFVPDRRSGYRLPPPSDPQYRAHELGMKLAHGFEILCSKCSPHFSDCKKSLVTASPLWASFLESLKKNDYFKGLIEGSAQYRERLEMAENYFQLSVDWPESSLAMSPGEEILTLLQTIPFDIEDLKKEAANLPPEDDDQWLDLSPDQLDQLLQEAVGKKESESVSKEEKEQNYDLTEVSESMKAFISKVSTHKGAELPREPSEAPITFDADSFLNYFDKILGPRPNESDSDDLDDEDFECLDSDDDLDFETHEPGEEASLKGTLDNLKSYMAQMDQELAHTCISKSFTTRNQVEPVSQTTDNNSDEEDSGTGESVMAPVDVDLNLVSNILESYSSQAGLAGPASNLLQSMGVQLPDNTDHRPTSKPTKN
UniProt Q96FN9: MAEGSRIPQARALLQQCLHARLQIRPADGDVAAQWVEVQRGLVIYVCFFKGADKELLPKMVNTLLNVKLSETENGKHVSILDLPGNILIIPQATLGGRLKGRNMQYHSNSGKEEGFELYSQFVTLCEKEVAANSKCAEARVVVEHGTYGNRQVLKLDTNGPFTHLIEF
UniProt Q9H410: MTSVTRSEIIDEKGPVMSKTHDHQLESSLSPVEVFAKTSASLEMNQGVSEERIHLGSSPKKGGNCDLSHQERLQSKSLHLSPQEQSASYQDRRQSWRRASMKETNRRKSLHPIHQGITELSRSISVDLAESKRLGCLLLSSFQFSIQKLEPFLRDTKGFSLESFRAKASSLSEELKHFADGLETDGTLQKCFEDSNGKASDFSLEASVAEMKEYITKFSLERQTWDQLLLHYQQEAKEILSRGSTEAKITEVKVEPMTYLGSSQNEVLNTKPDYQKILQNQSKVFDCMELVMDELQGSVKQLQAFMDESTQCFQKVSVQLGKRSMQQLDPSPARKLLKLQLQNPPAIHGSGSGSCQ

[2] = compound: NC(=O)c1cnc(N[C@@H]2CCCC[C@@H]2N)nc1Nc1cccc(-n2nccn2)c1
Outline: as §1

[3] = compound: NC1(c2ccc(-c3nc4ccn5c(=O)[nH]nc5c4cc3-c3ccccc3)cc2)CCC1
Outline: as §1

[4] = compound: NCC(=O)Nc1ccc(-n2nc(C(F)(F)F)cc2-c2ccc3c(ccc4ccccc43)c2)cc1
Outline: as §1

entinostat = compound: Nc1ccccc1NC(=O)c1ccc(CNC(=O)OCc2cccnc2)cc1 [entinostat]
Outline: as §1

vorinostat = compound: O=C(CCCCCCC(=O)Nc1ccccc1)NO [vorinostat]
Outline: as §1

citarinostat = compound: O=C(CCCCCCNC(=O)c1cnc(N(c2ccccc2)c2ccccc2Cl)nc1)NO [citarinostat]
Outline: as §1

silmitasertib = compound: O=C(O)c1ccc2c(c1)nc(Nc1cccc(Cl)c1)c1ccncc12 [silmitasertib]
Outline: as §1

[5] = compound: O=C1NC(=O)C(c2cnc3ccccn23)=C1c1cn2c3c(cc(F)cc13)CN(C(=O)N1CCCCC1)CC2
Outline: as §1

[6] = compound: c1cc(OCCN2CCCCC2)cc(-c2n[nH]c3ccc(-c4nnc[nH]4)cc23)c1
Outline: as §1

entospletinib = compound: c1cn2cc(-c3ccc4cn[nH]c4c3)nc(Nc3ccc(N4CCOCC4)cc3)c2n1 [entospletinib]
Outline: as §1

Measured: log2 fold change

DNASE2 (UniProt O00115)
inactive: [1] -0.054 | [2] -0.043 | [3] -0.05 | [4] 0.012 | entinostat -0.023 | vorinostat -0.03 | citarinostat 0.002 | silmitasertib -0.013 | [5] 0.12 | [6] -0.019 | entospletinib 0.044

ECI1 (UniProt P42126)
inactive: [1] -0.018 | [2] -0.003 | [3] 0.004 | [4] -0.045 | entinostat 0.022 | vorinostat -0.021 | citarinostat 0.006 | silmitasertib -0.001 | [5] -0.035 | [6] -0.053 | entospletinib 0.025

DPAGT1 (UniProt Q9H3H5)
inactive: [1] 0.076 | [2] -0.01 | [3] -0.033 | [4] 0.195 | entinostat 0.132 | vorinostat -0.301 | citarinostat -0.027 | silmitasertib -0.015 | [5] 0.059 | [6] 0.021 | entospletinib 0.031

DPH2 (UniProt Q9BQC3)
inactive: [1] 0 | [2] -0.088 | [3] -0.049 | [4] -0.019 | entinostat 0.028 | vorinostat 0.014 | citarinostat -0.001 | silmitasertib -0.058 | [5] -0.081 | [6] -0.018 | entospletinib -0.082

EDEM3 (UniProt Q9BZQ6)
inactive: [1] 0.034 | [2] -0.03 | [3] -0.076 | [4] 0.052 | entinostat -0.04 | vorinostat 0.022 | citarinostat 0.011 | silmitasertib 0.08 | [5] 0.025 | [6] -0.123 | entospletinib 0.067

DNAJC12 (UniProt Q9UKB3)
inactive: [1] -0.106 | [2] -0.048 | [3] -0.028 | [4] -0.026 | entinostat -0.032 | vorinostat 0.008 | citarinostat 0.112 | silmitasertib 0.014 | [5] -0.054 | [6] 0.178 | entospletinib -0.076

Two entries picked at random from the list so far, as already listed:
DNAJC12 (UniProt Q9UKB3)
inactive: [1] -0.106 | [2] -0.048 | [3] -0.028 | [4] -0.026 | entinostat -0.032 | vorinostat 0.008 | citarinostat 0.112 | silmitasertib 0.014 | [5] -0.054 | [6] 0.178 | entospletinib -0.076

DNASE2 (UniProt O00115)
inactive: [1] -0.054 | [2] -0.043 | [3] -0.05 | [4] 0.012 | entinostat -0.023 | vorinostat -0.03 | citarinostat 0.002 | silmitasertib -0.013 | [5] 0.12 | [6] -0.019 | entospletinib 0.044

(list continues)

DPH3 (UniProt Q96FX2)
inactive: [1] 0.035 | [2] 0.286 | [3] 0.037 | [4] 0.035 | entinostat 0.076 | vorinostat -0.057 | citarinostat -0.01 | silmitasertib -0.002 | [5] -0.236 | [6] -0.012 | entospletinib 0.028

DNAJC2 (UniProt Q99543)
inactive: [1] -0.079 | [2] -0.048 | [3] 0.034 | [4] -0.068 | entinostat 0.061 | vorinostat 0.097 | citarinostat 0.109 | silmitasertib 0.045 | [5] 0.208 | [6] -0.088 | entospletinib -0.063

DUS4L (UniProt O95620)
inactive: [1] -0.164 | [2] -0.006 | [3] 0.004 | [4] -0.006 | entinostat -0.077 | vorinostat -0.049 | citarinostat -0.111 | silmitasertib 0.048 | [5] -0.105 | [6] -0.055 | entospletinib -0.001

DPH7 (UniProt Q9BTV6)
inactive: [1] 0.033 | [2] -0.033 | [3] 0.118 | [4] 0.019 | entinostat -0.032 | vorinostat -0.063 | citarinostat -0.051 | silmitasertib -0.031 | [5] 0.04 | [6] 0.028 | entospletinib -0.011

ECI2 (UniProt O75521)
inactive: [1] -0.004 | [2] -0.009 | [3] 0.002 | [4] -0.045 | entinostat -0.004 | vorinostat 0.014 | citarinostat 0.015 | silmitasertib -0.039 | [5] -0.02 | [6] -0.041 | entospletinib 0.008

DPP9 isoform 2 (UniProt Q86TI2)
inactive: [1] 0.008 | [2] -0.039 | [3] -0.13 | [4] -0.044 | entinostat -0.006 | vorinostat 0.108 | citarinostat -0.008 | silmitasertib -0.042 | [5] -0.037 | [6] -0.049 | entospletinib -0.014

DNAJA3 (UniProt Q96EY1)
inactive: [1] 0.007 | [2] -0.037 | [3] 0.017 | [4] -0.034 | entinostat -0.063 | vorinostat 0.044 | citarinostat -0.01 | silmitasertib 0.14 | [5] 0.099 | [6] -0.072 | entospletinib 0.16

DNAJB14 (UniProt Q8TBM8)
inactive: [1] 0.033 | [2] 0.021 | [3] -0.102 | [4] 0.06 | entinostat 0.004 | vorinostat 0.014 | citarinostat 0.006 | silmitasertib -0.043 | [5] 0.067 | [6] 0.012 | entospletinib 0.047

ECHDC3 (UniProt Q96DC8)
inactive: [1] -0.488 | [3] -0.111 | [4] 0.162 | entinostat 0.139 | vorinostat -0.143 | citarinostat 0.318 | silmitasertib 0.098 | [5] 0.185 | [6] -0.067 | entospletinib -0.081

DNAJC24 (UniProt Q6P3W2)
inactive: [1] 0.023 | [3] 0.011 | [4] -0.129 | entinostat 0.055 | citarinostat 0.102 | silmitasertib 0.052 | [5] -0.059 | [6] -0.169

DNAJC16 (UniProt Q9Y2G8)
inactive: [1] 0.116 | [2] 0.447 | [4] -0.079 | entinostat -0.004 | vorinostat 0.006 | citarinostat -0.241 | [5] 0.06 | [6] -0.136 | entospletinib -0.062

DOP1B (UniProt Q9Y3R5)
inactive: [1] -0.055 | [3] -0.201 | [4] -0.162 | entinostat -0.013 | vorinostat 0.144 | citarinostat -0.042 | silmitasertib 0.082 | [5] -0.049 | [6] 0.076 | entospletinib -0.233

DPM3 isoform 2 (UniProt Q9P2X0)
inactive: [1] 0.025 | [2] -0.132 | [3] -0.067 | [4] 0.065 | entinostat 0.016 | citarinostat -0.078 | silmitasertib -0.004 | [5] -0.183 | [6] -0.024 | entospletinib 0.013

DYM (UniProt Q7RTS9)
inactive: [1] -0.044 | [3] -0.132 | [4] 0.023 | entinostat -0.078 | vorinostat 0.029 | citarinostat -0.005 | silmitasertib 0.002 | [5] -0.13 | [6] 0.014 | entospletinib 0.2

DOLK (UniProt Q9UPQ8)
inactive: [1] -0.036 | [2] -0.288 | entinostat 0.075 | [5] 0.014

DOK1 (UniProt Q99704)
inactive: [1] -0.01 | [2] 0.059 | [3] -0.13 | [4] -0.058 | entinostat 0.09 | citarinostat 0.216 | silmitasertib -0.1 | [5] -0.202 | [6] 0.002 | entospletinib -0.02

E4F1 (UniProt Q66K89)
inactive: [1] -0.279 | [2] 0.071 | [3] -0.061 | [4] 0.168 | entinostat -0.203 | vorinostat 0.051 | silmitasertib 0.053 | [5] 0.269

ECD isoform 3 (UniProt O95905)
inactive: [1] -0.003 | [3] -0.059 | [4] 0.02 | entinostat 0.03 | vorinostat 0.004 | citarinostat -0.032 | silmitasertib 0.177 | [5] 0.098 | [6] -0.159 | entospletinib 0.052

E2F3 (UniProt O00716)
inactive: [1] 0.102 | [3] -0.034 | [4] 0.038 | entinostat 0.026 | vorinostat 0.094 | citarinostat 0.001 | silmitasertib 0.014 | [5] -0.085 | [6] -0.089 | entospletinib 0.018

DPY19L1, A0A1B0GW05
inactive: [1] 0.032 | [2] 0.027 | [3] -0.082 | [4] 0.064 | entinostat -0.018 | citarinostat 0.042 | silmitasertib 0.089 | [5] -0.035 | [6] 0.005 | entospletinib -0.037

DVL2 (UniProt O14641)
inactive: [1] -0.037 | [2] -0.123 | entinostat 0.053 | vorinostat 0 | citarinostat -0.049 | [5] 0.216 | [6] -0.255 | entospletinib 0.038

DTD2 (UniProt Q96FN9)
inactive: [1] -0.03 | [2] -0.001 | [4] 0.029 | entinostat -0.024 | vorinostat 0.052 | [5] -0.187

DSN1 (UniProt Q9H410)
inactive: [1] -0.026 | [2] -0.057 | [3] -0.166 | [4] -0.037 | entinostat 0.076 | citarinostat 0.021 | silmitasertib 0.025 | [5] -0.032 | [6] -0.081

DYNC1I2 isoform 2 (UniProt Q13409)
inactive: [1] 0.181 | [2] 0 | [3] -0.037 | entinostat -0.206 | citarinostat 0.094 | silmitasertib -0.154 | [5] -0.127 | [6] -0.035

— the supplement of paper PMC10849652
